Results on one molecule are retold here after PMC11295332.

These are yes or no findings as the source states them, for the method shown. In cells and extracts the contact can be indirect. Some entries that bind do so weakly or less than the wild type. Tags and fused reporters may be left off the sequences shown.

The assay addresses T1, Interferon gamma receptor 1 (IFNGR1), myc-tagged (human) (UniProt P15260).
T1 sequence: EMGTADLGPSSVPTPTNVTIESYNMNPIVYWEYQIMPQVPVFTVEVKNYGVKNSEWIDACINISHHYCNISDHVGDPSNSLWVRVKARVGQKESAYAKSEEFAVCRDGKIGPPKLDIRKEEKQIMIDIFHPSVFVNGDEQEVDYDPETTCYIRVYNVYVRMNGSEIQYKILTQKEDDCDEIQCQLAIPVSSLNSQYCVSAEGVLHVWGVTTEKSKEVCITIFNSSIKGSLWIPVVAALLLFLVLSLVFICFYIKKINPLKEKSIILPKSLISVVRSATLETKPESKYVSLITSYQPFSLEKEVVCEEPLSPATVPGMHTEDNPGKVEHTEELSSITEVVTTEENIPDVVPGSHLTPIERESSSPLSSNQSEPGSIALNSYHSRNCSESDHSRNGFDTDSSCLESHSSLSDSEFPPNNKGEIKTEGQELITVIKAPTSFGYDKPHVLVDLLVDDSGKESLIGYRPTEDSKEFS
Nature of the assay: co-IP; Flag-tagged TPST2 and/or myc-tagged IFNGR1 overexpressed in MDA-MB-231 cells; lysis buffer 50 mM Tris-Cl pH 8.0, 150 mM NaCl, 1% NP-40; anti-myc-tag or anti-flag antibody on protein G magnetic beads, 4 °C, 16 h; reciprocal immunoprecipitation and western blotting.

B1: Tyrosylprotein sulfotransferase-2 (TPST2), flag-tagged (enzyme, UniProt O60704 1-377)
chain: MRLSVRRVLLAAGCALVLVLAVQLGQQVLECRAVLAGLRSPRGAMRPEQEELVMVGTNHVEYRYGKAMPLIFVGGVPRSGTTLMRAMLDAHPEVRCGEETRIIPRVLAMRQAWSKSGREKLRLDEAGVTDEVLDAAMQAFILEVIAKHGEPARVLCNKDPFTLKSSVYLSRLFPNSKFLLMVRDGRASVHSMITRKVTIAGFDLSSYRDCLTKWNKAIEVMYAQCMEVGKEKCLPVYYEQLVLHPRRSLKLILDFLGIAWSDAVLHHEDLIGKPGGVSLSKIERSTDQVIKPVNLEALSKWTGHIPGDVVRDMAQIAPMLAQLGYDPYANPPNYGNPDPFVINNTQRVLKGDYKTPANLKGYFQVNQNSTSSHLGSS
As for B1, the binding result is on record as “binds”.
